Experimental data taken from patent US5304633A, “Fragments of lactoferrin having potent antimicrobial activity” (priority 1990, dated 1994).
“And” between values parts separate entries of the source, which are not always exact repeats. Equal entries are not always repeated. At least one peptide structure holds a part that was inferred or is arguable (an end, a ring closure or a residue).

Experiments:
[1] = tested on: Clostridium perfringens ATCC-6013; type: cell-based
[2] = tested on: Clostridium perfringens ATCC-60; type: cell-based

In the case of `CC[C@H](C)[C@@H]1NC(=O)[C@H](CO)NC(=O)[C@@H]2CCCN2C(=O)[C@H](C)NC(=O)CNC(=O)[C@H](CC(C)C)NC(=O)[C@H](CCCCN)NC(=O)[C@H](CCCCN)NC(=O)[C@H](CCSC)NC(=O)[C@H](CCCNC(=N)N)NC(=O)[C@H](Cc2c[nH]c3ccccc23)NC(=O)[C@H](CCC(N)=O)NC(=O)[C@H](Cc2c[nH]c3ccccc23)NC(=O)[C@H](CCCNC(=N)N)NC(=O)[C@H](CCCNC(=N)N)NC(=O)[C@@H](NC(=O)[C@H](CCCCN)NC(=O)[C@@H](N)Cc2ccccc2)CSSC[C@@H](C(=O)N[C@H](C(=O)N[C@@H](CCCNC(=N)N)C(=O)N[C@@H](CCCNC(=N)N)C(=O)N[C@@H](C)C(=O)N[C@@H](Cc2ccccc2)C(=O)O)C(C)C)NC(=O)[C@H]([C@@H](C)O)NC1=O` [antimicrobial peptide of Example 1], the “Live bacteria count in 1 ml after 60 min.” value [1] is reported as 1000, the Survival rate ([1]; 60 min) is reported as 0.08% and the “Minimum Inhibitory Concentration” value [2] is reported as 12 and 24.
